Reference: patent publication US20210310040A1, “SUSCEPTIBILITY AND RESISTANCE OF MICROORGANISMS” (priority 2017, published 2021)
Values after ≈ are worked out from the molar mass of the structure shown.

Key:
E. coli AR 84 (ESBL) = experiment: Susceptibility by perturbation of VOCs, single indicator response after addition of antibiotic; type: cell-based; settings: Escherichia coli, 3 h; 5×10^5 CFU/ml; observed in under three hours, FIG. 51
Excerpt: (§1) However, it has been discovered that detection of changes in VOC output of microorganism—in addition to changes in the number of microorganisms—can be detected by the sensor 808 after application of antibiotics. The change in the sensor 808 response can also be correlated to susceptibility of the microorganism to antibiotics. For instance, it has been discovered that after application of antibiotics, certain sensors decrease or show less response at certain concentrations. This change in VOC output can be correlated to the resistance or susceptibility of the microorganisms in the sample to the antibiotic or other substance introduced. In other examples, a change in compound output that remain in solution (not limited to VOCs) may be correlated to a susceptibility of the microorganisms.
In the resistant strain illustrated in FIG. 48, AR 84 (ESBL), the antibiotic is added at the same time, but the red component of the sensor response continues to increase over time. […] Accordingly, in this embodiment, the sensor 808 response of a single indicator may be monitored. Changes in the slope of the indicator response over time, or decreases in the indicator may be monitored to determine when there is potentially a susceptible organism. […]

S. aureus 29213 (MSSA) = experiment: Susceptibility by perturbation of VOCs, single indicator response with antibiotic; type: cell-based; settings: Staphylococcus aureus, 2.5 h
Excerpt: as §1
FIG. 52 illustrates two graphs showing the MIC observed for two different antibiotics to S. aureus 29213 (MSSA). The graph on the left portion of FIG. 52 illustrates a MIC of 1 μg/ml to Cefoxitin and the graph on the right illustrations a MIC of 0.5 μg/ml of Vancomycin.

SMILES: CC1(C)S[C@@H]2[C@H](NC(=O)[C@H](N)c3ccccc3)C(=O)N2[C@H]1C(=O)O [Ampicillin]
- MIC (E. coli AR 84 (ESBL)): 64 µg/mL (≈ 183 µM)

SMILES: CN[C@H](CC(C)C)C(=O)N[C@H]1C(=O)N[C@@H](CC(N)=O)C(=O)N[C@H]2C(=O)N[C@H]3C(=O)N[C@H](C(=O)N[C@H](C(=O)O)c4cc(O)cc(O)c4-c4cc3ccc4O)[C@H](O)c3ccc(c(Cl)c3)Oc3cc2cc(c3O[C@@H]2O[C@H](CO)[C@@H](O)[C@H](O)[C@H]2O[C@H]2C[C@](C)(N)[C@H](O)[C@H](C)O2)Oc2ccc(cc2Cl)[C@H]1O [Vancomycin]
- MIC (S. aureus 29213 (MSSA)): 0.5 µg/mL (≈ 0.345 µM)
